Data as given in PubChem BioAssay AID504808 (Drosophila RNAi Screening Center, 2011)

Aim: 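Chromatin factors that keep E2F targets switched off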 (primary screen)
Cells: Drosophila S2 cells
Reagent: long dsRNA against Drosophila genes
Measurement: 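Firefly luciferase driven by E2F sites, normalised to Renilla luciferase on the same minimal promoter, measured by plate reader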
Reading the numbers: E2F firefly: higher = more E2F reporter activity; Renilla normaliser: higher = more normaliser reporter signal
Active means: 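a knock-down counted as active when the firefly/Renilla E2F signal rose above 50%, a threshold chosen arbitrarily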
In all, the deposit lists about 21,000 reagents; this is an unselected part of those that have a named target and a result. In the full data, 18 (0.084%) are marked active. 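Raw counts without plate normalisation, one of two replicates; the ratio scores behind the calls were not deposited.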 The numbers tell different reagents against one gene apart. Not stated in the record: the amount of reagent, the time to read-out.

no.	gene knocked down	reagent no.	E2F firefly, rep 1	Renilla normaliser, rep 1	activity call
1	CG12795	1	1.41e5	4838	inactive
2	Ski6	1	1.10e5	4056	inactive
3	rhi	1	1.32e5	4686	inactive
4	rush	1	2046	960	inactive
5	eIF2Bepsilon	1	1632	968	inactive
6	spict	1	78032	3856	inactive
7	arr	1	1.02e5	4212	inactive
8	CG31100	1	1.41e5	7092	inactive
9	CG31100	2	1.27e5	6412	inactive
10	Fcp3C	1	1.16e5	6143	inactive
11	Nf-YA	1	80638	4901	inactive
12	Iyd	1	99933	5352	inactive
13	Iyd	2	1.03e5	6650	inactive
14	CG15096	1	71411	3223	inactive
15	CG33181	1	1.26e5	6799	inactive
16	Ranbp21	1	1.32e5	5989	inactive
17	CG14787	1	94242	5453	inactive

Reprinted from the entries so far, 4 entries:
no.	gene knocked down	reagent no.	E2F firefly, rep 1	Renilla normaliser, rep 1	activity call
7	arr	1	1.02e5	4212	inactive
8	CG31100	1	1.41e5	7092	inactive
9	CG31100	2	1.27e5	6412	inactive
10	Fcp3C	1	1.16e5	6143	inactive

The listing continues.
no.	gene knocked down	reagent no.	E2F firefly, rep 1	Renilla normaliser, rep 1	activity call
18	CG13996	1	1.41e5	4518	inactive
19	CR33319	1	1.20e5	5506	inactive
20	Galphas	1	88628	3552	inactive
21	CG11726	1	1.31e5	6443	inactive
22	Unc-115a	1	64668	3927	inactive
23	Damm	1	93662	4204	inactive
24	inaF-B	1	85831	3408	inactive
25	Shc	1	1.21e5	6357	inactive
26	CG13887	1	69458	3426	inactive
27	Ugt303A1	1	1.42e5	6167	inactive
28	Patj	1	72592	3530	inactive
29	mRpS2	1	1.54e5	5083	inactive
30	CG14191	1	1.22e5	120	inactive
31	CG42686 (retired record)	1	57213	4204	inactive
32	CG42686 (retired record)	2	1.11e5	5333	inactive
33	na	1	1.75e5	14743	inactive
34	Syx8	1	1.64e5	8381	inactive
